From the supplement of paper PMC10849652
The other results are listed elsewhere or left out.

By UniProt entry, the sequences of proteins in these tests, tags left out. Where a name states a change or a piece, a line headed by the entry shows the natural chain unless it says otherwise.
UniProt P51648: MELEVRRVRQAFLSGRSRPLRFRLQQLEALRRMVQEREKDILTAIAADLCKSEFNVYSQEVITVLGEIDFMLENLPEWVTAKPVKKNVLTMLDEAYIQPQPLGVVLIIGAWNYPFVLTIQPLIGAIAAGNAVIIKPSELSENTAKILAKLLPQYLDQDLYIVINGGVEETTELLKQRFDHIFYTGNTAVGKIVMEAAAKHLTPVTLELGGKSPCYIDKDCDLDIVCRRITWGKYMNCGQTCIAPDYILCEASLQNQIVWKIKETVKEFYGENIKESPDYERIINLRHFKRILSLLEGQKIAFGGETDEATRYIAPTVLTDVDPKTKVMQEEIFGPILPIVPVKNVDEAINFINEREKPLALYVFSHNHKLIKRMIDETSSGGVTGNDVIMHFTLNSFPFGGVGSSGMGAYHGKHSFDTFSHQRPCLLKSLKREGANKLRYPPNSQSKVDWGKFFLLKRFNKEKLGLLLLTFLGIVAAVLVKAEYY
UniProt Q9P2G1: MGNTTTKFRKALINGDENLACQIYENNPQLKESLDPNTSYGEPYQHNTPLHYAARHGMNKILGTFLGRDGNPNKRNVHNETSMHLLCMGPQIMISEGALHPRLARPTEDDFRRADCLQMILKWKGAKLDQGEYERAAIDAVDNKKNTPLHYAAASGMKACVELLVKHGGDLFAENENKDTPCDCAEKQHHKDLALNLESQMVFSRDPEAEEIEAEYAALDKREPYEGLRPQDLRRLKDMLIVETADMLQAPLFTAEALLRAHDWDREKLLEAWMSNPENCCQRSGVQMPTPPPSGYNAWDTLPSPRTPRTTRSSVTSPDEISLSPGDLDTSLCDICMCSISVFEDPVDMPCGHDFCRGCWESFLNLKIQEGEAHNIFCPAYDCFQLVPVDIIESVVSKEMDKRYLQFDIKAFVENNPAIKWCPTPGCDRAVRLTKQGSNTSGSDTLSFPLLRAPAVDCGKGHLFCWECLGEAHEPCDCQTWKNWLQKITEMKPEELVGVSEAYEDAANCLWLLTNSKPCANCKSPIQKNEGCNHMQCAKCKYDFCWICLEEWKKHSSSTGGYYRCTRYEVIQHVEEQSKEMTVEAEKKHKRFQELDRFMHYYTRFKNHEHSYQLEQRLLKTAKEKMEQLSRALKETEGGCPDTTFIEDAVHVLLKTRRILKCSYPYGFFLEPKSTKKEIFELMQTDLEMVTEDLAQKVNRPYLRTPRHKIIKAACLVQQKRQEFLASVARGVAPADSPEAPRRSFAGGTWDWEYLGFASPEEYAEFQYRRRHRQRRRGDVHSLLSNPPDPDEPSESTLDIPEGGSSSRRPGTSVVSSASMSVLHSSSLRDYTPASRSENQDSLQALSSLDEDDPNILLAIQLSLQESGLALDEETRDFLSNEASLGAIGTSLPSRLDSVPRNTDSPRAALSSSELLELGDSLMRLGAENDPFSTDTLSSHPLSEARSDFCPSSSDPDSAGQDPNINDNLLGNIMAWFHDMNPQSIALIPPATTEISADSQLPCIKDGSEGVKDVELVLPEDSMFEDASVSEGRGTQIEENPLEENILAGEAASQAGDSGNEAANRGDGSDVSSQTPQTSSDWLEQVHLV
UniProt Q6UB98: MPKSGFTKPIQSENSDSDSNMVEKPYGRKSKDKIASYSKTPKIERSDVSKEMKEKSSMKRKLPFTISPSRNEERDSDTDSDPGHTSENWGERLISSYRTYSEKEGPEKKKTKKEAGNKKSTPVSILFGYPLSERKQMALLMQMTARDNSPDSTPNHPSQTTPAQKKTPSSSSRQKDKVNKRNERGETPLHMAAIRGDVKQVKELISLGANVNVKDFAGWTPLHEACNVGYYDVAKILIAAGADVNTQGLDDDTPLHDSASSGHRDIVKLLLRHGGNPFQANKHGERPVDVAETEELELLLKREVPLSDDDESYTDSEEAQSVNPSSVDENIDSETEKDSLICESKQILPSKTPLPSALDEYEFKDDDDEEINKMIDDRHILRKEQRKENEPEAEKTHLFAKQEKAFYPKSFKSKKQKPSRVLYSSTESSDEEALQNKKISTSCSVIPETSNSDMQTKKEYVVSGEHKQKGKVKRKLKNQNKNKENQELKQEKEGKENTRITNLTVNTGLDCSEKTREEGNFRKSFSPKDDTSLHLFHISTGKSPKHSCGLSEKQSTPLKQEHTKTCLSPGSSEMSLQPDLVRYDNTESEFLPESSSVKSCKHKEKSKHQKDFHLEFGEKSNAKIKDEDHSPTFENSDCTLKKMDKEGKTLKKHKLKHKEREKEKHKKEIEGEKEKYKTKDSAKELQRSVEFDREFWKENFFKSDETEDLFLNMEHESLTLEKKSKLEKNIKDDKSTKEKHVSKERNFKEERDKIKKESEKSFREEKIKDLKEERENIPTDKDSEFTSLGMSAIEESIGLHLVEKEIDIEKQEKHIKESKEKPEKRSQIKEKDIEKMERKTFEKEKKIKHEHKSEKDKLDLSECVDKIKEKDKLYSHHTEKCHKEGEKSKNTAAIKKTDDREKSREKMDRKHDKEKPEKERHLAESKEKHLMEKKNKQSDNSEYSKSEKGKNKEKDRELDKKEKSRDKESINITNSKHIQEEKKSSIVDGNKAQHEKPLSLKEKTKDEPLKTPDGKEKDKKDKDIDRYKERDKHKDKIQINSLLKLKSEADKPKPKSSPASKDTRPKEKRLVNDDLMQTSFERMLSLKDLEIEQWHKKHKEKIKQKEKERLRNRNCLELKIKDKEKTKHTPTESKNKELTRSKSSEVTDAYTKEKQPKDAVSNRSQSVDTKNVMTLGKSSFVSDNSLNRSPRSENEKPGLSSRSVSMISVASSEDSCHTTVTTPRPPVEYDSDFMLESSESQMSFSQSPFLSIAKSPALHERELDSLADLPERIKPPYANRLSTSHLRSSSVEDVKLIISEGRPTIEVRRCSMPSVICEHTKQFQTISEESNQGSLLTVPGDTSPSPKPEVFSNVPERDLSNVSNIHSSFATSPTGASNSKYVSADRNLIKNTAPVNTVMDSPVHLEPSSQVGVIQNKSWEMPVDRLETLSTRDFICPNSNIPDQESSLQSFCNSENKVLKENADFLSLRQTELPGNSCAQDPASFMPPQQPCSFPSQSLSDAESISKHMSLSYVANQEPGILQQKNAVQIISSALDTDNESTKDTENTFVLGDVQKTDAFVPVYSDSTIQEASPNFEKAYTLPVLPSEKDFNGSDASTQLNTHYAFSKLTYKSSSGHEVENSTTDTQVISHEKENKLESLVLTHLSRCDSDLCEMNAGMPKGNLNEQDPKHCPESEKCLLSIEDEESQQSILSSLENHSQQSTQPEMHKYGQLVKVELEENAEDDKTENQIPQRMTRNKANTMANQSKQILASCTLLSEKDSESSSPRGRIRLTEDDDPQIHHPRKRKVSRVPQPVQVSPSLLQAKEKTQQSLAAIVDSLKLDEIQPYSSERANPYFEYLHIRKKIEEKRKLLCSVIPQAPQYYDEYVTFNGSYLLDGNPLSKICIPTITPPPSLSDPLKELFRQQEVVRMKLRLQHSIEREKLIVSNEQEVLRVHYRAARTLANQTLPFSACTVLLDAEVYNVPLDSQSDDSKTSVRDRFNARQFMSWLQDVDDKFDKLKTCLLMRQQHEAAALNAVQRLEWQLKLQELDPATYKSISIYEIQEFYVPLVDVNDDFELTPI
UniProt Q96F25: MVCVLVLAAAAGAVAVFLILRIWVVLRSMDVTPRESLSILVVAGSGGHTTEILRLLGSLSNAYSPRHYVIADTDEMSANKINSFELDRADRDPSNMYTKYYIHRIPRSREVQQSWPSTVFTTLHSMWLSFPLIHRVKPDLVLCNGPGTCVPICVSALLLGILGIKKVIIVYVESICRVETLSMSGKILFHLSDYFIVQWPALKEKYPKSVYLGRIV
UniProt P54886: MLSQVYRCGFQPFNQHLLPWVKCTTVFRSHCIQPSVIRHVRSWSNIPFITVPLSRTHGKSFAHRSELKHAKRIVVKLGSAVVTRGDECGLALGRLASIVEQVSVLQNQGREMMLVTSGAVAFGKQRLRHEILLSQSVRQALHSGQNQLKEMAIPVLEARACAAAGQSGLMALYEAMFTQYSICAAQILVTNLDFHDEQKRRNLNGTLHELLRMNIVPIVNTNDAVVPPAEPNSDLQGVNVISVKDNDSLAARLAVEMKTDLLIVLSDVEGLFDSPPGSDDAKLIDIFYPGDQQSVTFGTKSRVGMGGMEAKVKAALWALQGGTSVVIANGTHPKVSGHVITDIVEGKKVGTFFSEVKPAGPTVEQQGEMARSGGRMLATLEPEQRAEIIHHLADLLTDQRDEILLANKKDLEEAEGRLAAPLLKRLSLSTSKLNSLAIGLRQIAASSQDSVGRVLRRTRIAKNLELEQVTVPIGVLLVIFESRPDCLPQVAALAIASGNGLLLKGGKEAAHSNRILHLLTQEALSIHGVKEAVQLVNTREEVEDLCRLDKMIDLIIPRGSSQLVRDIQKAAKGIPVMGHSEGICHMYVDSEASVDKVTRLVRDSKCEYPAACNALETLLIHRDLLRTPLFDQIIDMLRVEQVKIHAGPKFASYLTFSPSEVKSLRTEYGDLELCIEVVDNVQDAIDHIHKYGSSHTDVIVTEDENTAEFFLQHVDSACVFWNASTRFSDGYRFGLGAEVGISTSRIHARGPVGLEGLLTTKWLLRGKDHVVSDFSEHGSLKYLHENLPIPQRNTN
UniProt P22557: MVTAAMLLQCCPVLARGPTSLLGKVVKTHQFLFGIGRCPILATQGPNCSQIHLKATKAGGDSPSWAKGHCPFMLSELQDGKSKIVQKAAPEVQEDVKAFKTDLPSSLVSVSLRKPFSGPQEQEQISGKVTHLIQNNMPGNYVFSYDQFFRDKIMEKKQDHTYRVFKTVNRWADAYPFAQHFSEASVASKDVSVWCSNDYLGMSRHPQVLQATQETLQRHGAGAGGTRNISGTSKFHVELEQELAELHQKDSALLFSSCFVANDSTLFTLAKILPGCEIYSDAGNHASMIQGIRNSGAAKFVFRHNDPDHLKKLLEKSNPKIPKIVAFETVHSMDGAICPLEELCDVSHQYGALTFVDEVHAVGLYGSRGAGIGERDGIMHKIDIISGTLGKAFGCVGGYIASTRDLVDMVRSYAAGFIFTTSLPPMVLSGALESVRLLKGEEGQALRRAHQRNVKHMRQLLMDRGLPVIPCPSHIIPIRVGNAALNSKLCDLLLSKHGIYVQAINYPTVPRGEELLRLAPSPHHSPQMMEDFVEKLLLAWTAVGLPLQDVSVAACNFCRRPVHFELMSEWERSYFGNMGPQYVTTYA
UniProt Q9NP73: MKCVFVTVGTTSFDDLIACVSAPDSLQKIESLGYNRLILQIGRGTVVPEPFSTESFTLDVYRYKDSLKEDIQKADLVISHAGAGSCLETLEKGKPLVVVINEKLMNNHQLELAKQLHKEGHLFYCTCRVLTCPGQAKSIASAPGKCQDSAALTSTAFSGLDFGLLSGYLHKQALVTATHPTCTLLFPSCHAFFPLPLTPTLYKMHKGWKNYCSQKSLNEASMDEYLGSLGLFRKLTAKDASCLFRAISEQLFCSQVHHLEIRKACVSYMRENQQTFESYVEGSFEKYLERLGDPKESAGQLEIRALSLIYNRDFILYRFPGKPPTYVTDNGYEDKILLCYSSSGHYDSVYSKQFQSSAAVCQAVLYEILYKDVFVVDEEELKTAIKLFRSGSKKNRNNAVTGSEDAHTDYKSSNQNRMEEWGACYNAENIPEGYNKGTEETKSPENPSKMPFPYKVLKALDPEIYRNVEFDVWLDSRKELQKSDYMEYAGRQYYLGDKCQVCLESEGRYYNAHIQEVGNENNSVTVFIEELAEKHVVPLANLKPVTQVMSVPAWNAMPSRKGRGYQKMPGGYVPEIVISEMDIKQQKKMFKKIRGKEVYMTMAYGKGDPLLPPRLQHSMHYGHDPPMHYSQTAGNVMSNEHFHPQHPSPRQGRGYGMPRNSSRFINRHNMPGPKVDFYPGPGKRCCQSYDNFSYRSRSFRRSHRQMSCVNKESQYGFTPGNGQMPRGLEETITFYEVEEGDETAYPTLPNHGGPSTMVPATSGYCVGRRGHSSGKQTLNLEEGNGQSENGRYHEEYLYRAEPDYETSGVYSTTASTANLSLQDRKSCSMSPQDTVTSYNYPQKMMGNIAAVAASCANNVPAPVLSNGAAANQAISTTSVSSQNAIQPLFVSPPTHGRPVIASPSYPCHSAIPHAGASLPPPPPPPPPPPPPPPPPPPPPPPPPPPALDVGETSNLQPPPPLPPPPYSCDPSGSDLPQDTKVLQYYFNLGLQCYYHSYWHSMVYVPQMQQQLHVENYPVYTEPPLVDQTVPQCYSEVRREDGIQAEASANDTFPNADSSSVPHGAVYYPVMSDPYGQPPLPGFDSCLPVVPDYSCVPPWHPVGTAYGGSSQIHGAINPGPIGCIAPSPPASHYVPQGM
UniProt Q86W74: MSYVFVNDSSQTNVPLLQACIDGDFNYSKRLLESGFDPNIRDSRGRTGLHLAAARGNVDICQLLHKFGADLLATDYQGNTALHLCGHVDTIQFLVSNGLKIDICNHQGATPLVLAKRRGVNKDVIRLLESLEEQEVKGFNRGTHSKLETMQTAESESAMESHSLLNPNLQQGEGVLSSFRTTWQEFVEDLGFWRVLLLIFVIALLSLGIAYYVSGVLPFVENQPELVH

Experiments:
Test in all cases: log2 fold change, soluble protein after heating vs DMSO (PISA); higher = thermal stabilisation; K562 lysate, 10 uM; active = over 0.2 and 3.5 SD of the protein, either way, in both replicates (recomputed)
[1] = compound: CC(C)(C)Cn1c(N)nc2ccc(-c3[nH]c(C(C)(C)C)nc3-c3ccc(F)cc3)nc21 [ralimetinib]
How it was run: (§1)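 Pellets of K562 cells were dounce-homogenised in PBS pH 7.4 with 1 mM MgCl2, and the crude extract was held at 1 mg/mL protein for a 30 min treatment with 10 μM compound. Aliquots were heated for 3 min over 48°C-58°C and pooled before NP-40 was added to 0.5% at 4°C. The supernatant from 21,000xg for 90 min was quantified by TMTpro 16plex LC-MS/MS with channel sums equalised. Values are reported from duplicates as log-two fold change in thermal stability relative to solvent controls.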

[2] = compound: CC(C)(O)CC(=O)NCCn1ccc2ncnc(Nc3ccc(Oc4cccc(C(F)(F)F)c4)c(Cl)c3)c21
How it was run: as §1

[3] = compound: CC1=C(C(CC(=O)N1)C2=CC=C(C=C2)C(F)(F)F)C(=O)NC3=C(C=C4C(=C3)C=NN4)F
How it was run: as §1

[4] = compound: CC1=C(C2=C(C=C1)C(=O)C3=CC=CC=C3N2CCCN)C
How it was run: as §1

[5] = compound: CC1=C(C=C(C=C1)NC(=O)C2=CC(=CC=C2)C(C)(C)C#N)NC3=CC4=C(C=C3)N=CN(C4=O)C
How it was run: as §1

[6] = compound: CC1=C(C=C(C=C1)NC(=O)C2=CC(=CC=C2)N(C)C)NC(=O)C3=CC=C(C=C3)O
How it was run: as §1

[7] = compound: CC(=O)c1cnc2ccc(-c3cc(Cl)c(O)c(Cl)c3)nc2c1N[C@H]1CC[C@H](CN(C)C)CC1
How it was run: as §1

[8] = compound: CC1=CC=C(C=C1)SC2=C3C=C(SC3=CN=C2)C(=O)N
How it was run: as §1

[9] = compound: CC(C)C1=C2N=C(C=C(N2N=C1)NCC3=CC=CC=C3)NCCCCCCN
How it was run: as §1

Measured: log2 fold change

AMOT (UniProt Q4VCS5)
inactive: [1] 0.046 | [2] -0.038 | [3] 0.037 | [4] -0.009 | [5] 0.024 | [6] -0.02

ANKRD13B (UniProt Q86YJ7)
inactive: [7] -0.119 | [4] -0.078 | [8] -0.022

ALDH3A2 isoform 2 (UniProt P51648)
inactive: [1] -0.131 | [2] 0.443 | [3] -0.208 | [4] 0.347 | [6] 0.362

ANKIB1 (UniProt Q9P2G1)
inactive: [1] 0.072 | [2] 0.058 | [6] 0.013

ANKRD12 (UniProt Q6UB98)
inactive: [1] 0.002 | [2] 0.007 | [6] -0.034

ALG14 (UniProt Q96F25)
inactive: [7] -0.064 | [8] 0.102

AMFR (UniProt Q9UKV5)
inactive: [1] 0.049 | [2] 0.014 | [9] 0 | [3] 0.038 | [4] -0.093 | [5] -0.056 | [6] -0.005

AMN1 (UniProt Q8IY45)
inactive: [7] -0.019 | [8] 0.116

ALDH18A1 isoform 2 (UniProt P54886)
inactive: [1] -0.308 | [2] -0.245 | [4] -0.378 | [5] 0.03 | [6] 0.19

AP3D1 isoform 2 (UniProt O14617)
inactive: [7] -0.085 | [9] 0.09 | [3] 0.127 | [8] 0.053

ANKRD11 (UniProt Q6UB99)
inactive: [1] -0.029 | [2] -0.025 | [9] 0.053 | [4] -0.125 | [5] 0.037 | [6] 0.012

ALAS2 (UniProt P22557)
inactive: [5] 0.012

ANKS6 isoform 4 (UniProt Q68DC2)
inactive: [1] 0.121 | [2] -0.373 | [9] 0.037 | [3] -0.009 | [4] -0.079 | [5] 0.01 | [6] 0.213

AP1S2 (UniProt H7BZG6)
inactive: [9] -0.026

ALG13 isoform 2 (UniProt Q9NP73)
inactive: [3] 0.03

ANKRD46 (UniProt Q86W74)
inactive: [1] -0.061 | [2] -0.045 | [9] 0.015 | [4] 0.017 | [5] -0.016 | [6] 0.081
